Assay results: US20180066029A1
These are yes or no findings as the source states them, for the method shown. Some binding calls cover weakened binding; strength is not graded here.

Biological target: H3K4me3-modified histone H3 peptide (CelluSpots peptide array) (UniProt P68431)
Test: CelluSpots histone peptide array

binding: binds
B1: single PHD domain of TAF3 (protein, UniProt Q5VWG9 857-924, looked up, not shown: a dimerising Fc or GST)
chain: IRDEWGNQIWICPGCNKPDDGSPMIGCDDCDDWYHWPCVGIMTAPPEEMQWFCPKCANKKKDKKHKKR
